The target in the test is T1, 3×FLAG-GFP-short Osk (Drosophila) (UniProt P25158).
T1 sequence: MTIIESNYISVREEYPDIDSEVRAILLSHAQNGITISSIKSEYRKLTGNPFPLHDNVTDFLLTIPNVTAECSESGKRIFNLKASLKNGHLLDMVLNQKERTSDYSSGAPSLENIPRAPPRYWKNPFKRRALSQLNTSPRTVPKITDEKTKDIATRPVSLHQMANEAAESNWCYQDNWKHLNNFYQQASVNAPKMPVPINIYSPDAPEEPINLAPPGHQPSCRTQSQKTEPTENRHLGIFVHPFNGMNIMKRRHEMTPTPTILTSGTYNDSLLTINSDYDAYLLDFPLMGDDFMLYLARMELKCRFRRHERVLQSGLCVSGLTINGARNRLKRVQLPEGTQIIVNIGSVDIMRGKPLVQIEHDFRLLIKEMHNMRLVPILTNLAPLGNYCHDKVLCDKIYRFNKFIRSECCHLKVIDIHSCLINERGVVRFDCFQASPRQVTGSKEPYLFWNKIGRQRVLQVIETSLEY
The test is described as follows: co-IP; anti-FLAG M2-Sepharose on ovarian lysates (25 mM HEPES pH 6.8, 150 mM KCl, 1 mM MgCl2, 1% Triton X-100, 250 mM sucrose), overnight at 4°C, eluted with 3×FLAG peptides; western blots for FLAG, Yl, Rab5, Rab7 and Rab11. On the technique in general: A western blot detects proteins with antibodies after separation by electrophoresis.

These are yes or no findings as the source states them, for the method shown. Binding seen in cells or lysates may run through a third protein. Binding calls can cover weak binding; strength is not graded here. Where a sequence is shown, tags or fusion partners need not be part of it.

As to “Yolkless (Drosophila (endogenous in ovaries)) (receptor)”, the binding entry is recorded as “binds weakly”.
